Data: US4943561A, “Gastrin releasing peptide antagonist” (Merck & Co., Inc., priority 1988, dated 1990)
Part of at least one peptide drawing is inferred or uncertain, most often the ends. Residues, ends and D or L forms follow the SMILES beside them. *: point of attachment. NH(2-Me-nonan-4R-yl) = CCCCC[C@H](CC(C)C)N*; NHCH(iBu)2 = CC(C)CC(CC(C)C)N*; X1 = CCCCC[C@@H](CC(C)C)N*; Ms = CS(=O)(=O)*

Assays:
Swiss 3T3 cells = assay: Procedure B: Mitogenic Stimulation (3H-thymidine uptake); assay type: cell-based, murine; details: compound alone, 48 hours
H345 SCLC cells = assay: Procedure D: Stimulation of Ca2+ Release in SCLC (inhibition of GRP dependent calcium release); assay type: cell-based, human; details: Fura-2, 100 nM GRP, 37° C.

Question: With `CCCCC[C@H](CC(C)C)NC(=O)[C@H](Cc1c[nH]cn1)NC(=O)CNC(=O)[C@@H](NC(=O)[C@H](C)NC(=O)[C@H](Cc1c[nH]c2ccccc12)NC(=O)[C@H](Cc1c[nH]cn1)NC(C)=O)C(C)C` [1(R)] (Ac-HWAVGH-{NH(2-Me-nonan-4R-yl)}) as the compound, how does the IC50 (Swiss 3T3 cells) read?
Answer: The IC50 was over 300 nM.

Question: And the IC50 (H345 SCLC cells)?
Answer: Its IC50 is 200 nM.

Question: For `CCCCC[C@@H](CC(C)C)NC(=O)[C@H](Cc1c[nH]cn1)NC(=O)CNC(=O)[C@@H](NC(=O)[C@H](C)NC(=O)[C@H](Cc1c[nH]c2ccccc12)NC(=O)[C@H](Cc1c[nH]cn1)NC(C)=O)C(C)C` [1(S)] (Ac-HWAVGH-X1), which IC50 (Swiss 3T3 cells) is on record?
Answer: The IC50 was over 300 nM.

Question: How did the IC50 (Swiss 3T3 cells) turn out when `CCCCC[C@H](CC(C)C)NC(=O)[C@H](Cc1c[nH]cn1)NC(=O)CNC(=O)[C@@H](NC(=O)[C@H](C)NC(=O)[C@H](Cc1c[nH]c2ccccc12)NC(=O)[C@H](Cc1c[nH]cn1)NS(C)(=O)=O)C(C)C` [3(R)] (Ms-HWAVGH-{NH(2-Me-nonan-4R-yl)}) was run?
Answer: Its IC50 is over 300 nM.

Question: How did the IC50 (Swiss 3T3 cells) turn out when `CC(=O)N[C@@H](Cc1c[nH]cn1)C(=O)N[C@@H](Cc1c[nH]c2ccccc12)C(=O)N[C@@H](C)C(=O)N[C@H](C(=O)NCC(=O)N[C@@H](Cc1c[nH]cn1)C(=O)NC(CC(C)C)CC(C)C)C(C)C` [Example 6] (Ac-HWAVGH-{NHCH(iBu)2}) was run?
Answer: Its IC50 is over 300 nM.
